Positions count from the first letter of the chain named. Results are given in words; binding and its absence hold for the method and conditions named. Binding seen in cells or lysates may run through a third protein. Tags and fused reporters may be left off the sequences shown.
Columns and labels:
Assay in all cases: co-IP; Sa3 cells stably expressing EGFP-Rab23 forms lysed in IP and westernblot lysis buffer; anti-EGFP antibody 6 h, A/G plus beads overnight, five washes; immunoblot for endogenous partners
EGFP-Rab23 Q68L (human) = target: T1, EGFP-Rab23 Q68L (human) (UniProt Q9ULC3)
T1 sequence: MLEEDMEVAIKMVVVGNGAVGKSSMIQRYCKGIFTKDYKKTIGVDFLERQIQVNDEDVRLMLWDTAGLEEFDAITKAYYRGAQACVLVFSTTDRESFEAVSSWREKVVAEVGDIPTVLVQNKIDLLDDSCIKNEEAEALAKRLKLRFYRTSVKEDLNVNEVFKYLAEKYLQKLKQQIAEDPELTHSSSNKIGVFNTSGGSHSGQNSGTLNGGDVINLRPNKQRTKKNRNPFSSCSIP

EGFP-Rab23 WT (human) = target: T2, EGFP-Rab23 WT (human) (UniProt Q9ULC3)
T2 sequence: T1 sequence with L68Q

EGFP-Rab23 S23N (human) = target: T3, EGFP-Rab23 S23N (human) (UniProt Q9ULC3)
T3 sequence: T1 sequence with S23N, L68Q

binding (EGFP-Rab23 Q68L (human)): no binding
binding (EGFP-Rab23 WT (human)): no binding
binding (EGFP-Rab23 S23N (human)): no binding
Substance: Rab5 (human (endogenous in Sa3))
